These results are taken from the supplement of paper PMC5949888.

Most values lie at the floor of the assay. Slopes are relative: functional sequences can read slightly below zero.

This series concerns Saccharomyces cerevisiae PS128 hsf1 delta, HSF1(1-493) fusion. The series is described as follows: growth estimate (transactivation domain function in HSF1 fusion, heat-shock survival) (a.u. (slope of normalised read count over time)); higher = stronger growth at 37°C, i.e. more transactivation activity. The conditions noted are these: library: random library. The protocol:
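Random 60-nt DNA library encoding peptides of up to 20 aa, fused to the C-terminus of yeast HSF1 residues 1-493 (C-terminal TAD deleted) and expressed from the native HSF1 promoter on a CEN plasmid in hsf1-deleted S. cerevisiae PS128. Cells were selected at 37°C on -trp 5-FOA plates for 0, 2, 4, 6 and 8 days and amplicons were sequenced. Growth estimate is the slope of a robust linear fit of total-sum-normalised read counts (normalised to the first time point) over time, using at least 2 replicates. Sequences are classed functional (TAD activity) above a threshold of -0.13, set from stop-codon control sequences.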
For the substance CRRQRRACLATIRWLETSHN, the growth estimate is < -0.25.
The value for KVGRR was < -0.25.
In the case of WAK it was < -0.25; in that of VYGPERTNHDRIKVDKGNSY, < -0.25; in that of FRRRSIYLALEIFKAIAVLL, < -0.25.
In the case of TFPSFRVVPASLTLNDP it was < -0.25; in that of VQGVGGGPLKPGSRFPVREG, < -0.25; in that of EVLFWRDGG, < -0.25.
For the substance GRH, the growth estimate is < -0.25.
In the case of ASNAPAIGGSGYRKHVVVRS it was < -0.25.
In the case of LTPVYGSLSGCPRSLRWELN it was < -0.25.
The value for RTY was < -0.25.
On to ESRPYEAVWAFRPLEHSCLG, for which the growth estimate is < -0.25.
The value for PDGKGC was < -0.25.
Turning to GTRCLSIIAFTDYGLLERHS, the growth estimate was < -0.25.
In the case of HFAPS it was < -0.25; in that of CFIMYFLVIGSML, < -0.25; in that of RIGIRMEGISHPIRYLHPIE, < -0.25.
In the case of CVSEGSRHG it was < -0.25; in that of FARGVLGFSGRGSMAAIRYT, < -0.25; in that of SDCFASSESSFVAELFSYTL, < -0.25.
The value for PRELAILIVAGPGALCNQYD was < -0.25; that for VYCLRALQSTDSWTEARIRA was < -0.25.
As for PLVRRVTRTLL, the growth estimate was < -0.25.
In the case of KWTMGTRQPVLSGDGSPQRV it was < -0.25; in that of YLDRQCKQTHPRGAVT, < -0.25.
The value for VCEPSGDANWLNGAHGFGS was 0.936.
In the case of QATGRARFGGNPASPGSICW it was < -0.25; in that of MPTEASSSFQFDLCPVCRQV, < -0.25.
On to GGGSDVTSALEFLDRLYSLW, for which the growth estimate is < -0.25.
The value for YEVIRASRNFNRTLALTGDT was < -0.25; that for RTISPHYSPCLEAVTHHVKA was -0.166.
Consider LGTTMVQQRVR, for which the growth estimate was < -0.25.
In the case of TLTPGWTCPVSSDTGISVCG it was -0.246; in that of TRPMGGAVNSPERTMYQNDS, < -0.25; in that of STH, < -0.25.
As for PPATQREVLWVCTPYVYHHD, the growth estimate was < -0.25.
In the case of SGSASRTDMKQSGNPVGRCL it was < -0.25; in that of KSNVGFSVITCVRPGYPAGL, < -0.25; in that of LRCLSIKRMI, < -0.25.
In the case of VRLKLLTIVGFSVTAHATFL it was < -0.25.
The value for QGYSKRWTGLGQLRNSGNR was < -0.25; that for MGVMSDIRYETRPSIYRYRA was < -0.25; that for GRAQSGSASSFSTSCHPSTD was < -0.25.
For the substance PYSRDGGPNANSWPGSAGNA, the growth estimate was < -0.25.
In the case of PVRSTAASKWGP it was < -0.25.
In the case of CPGSNWTLSG it was < -0.25.
The value for SVSTSARSIALDAAIYKRGL was < -0.25; that for RPVGRLRVKIGVYNCCAATL was < -0.25; that for SLQTTARMNRP was < -0.25.
PEHCPRQSFSLELVSSPYGR: the growth estimate was < -0.25.
For PFAETR, the growth estimate was < -0.25.
The value for SHWVDLPSEIGAFIEYQARP was -0.149; that for HAWSLAV was < -0.25.
The value for WDSFAVSLRD was < -0.25; that for CEGARFRDKPHVHQHLYDCL was < -0.25; that for NHRP was < -0.25.
In the case of QQGKRLARLAT it was < -0.25; in that of PTTTRVGVVCCPPKGE, < -0.25.
In the case of AAGRGGRVPCLVKEHLN, the growth estimate is < -0.25.
Turning to HTANPIQGILHKA, the growth estimate was < -0.25.
For the substance SLVSHGIPCATPRDDTKSCW, the growth estimate was < -0.25.
On to PRVYV, for which the growth estimate was < -0.25.
In the case of ESLRCSVCRTKEYYYSILDE it was -0.0126; in that of WVRCARLFGSAKGFSSGPWR, < -0.25; in that of WNDVYLLQHWA, < -0.25.
In the case of SWRSSDYVSLCGLRTGNLAG it was < -0.25; in that of PRHVIYEIHGSAKPASACQR, < -0.25; in that of SKEA, < -0.25.
As for SCIVGQASDRVCALITSMSC, the growth estimate was < -0.25.
The value for PVRGLGGVASVPF was < -0.25.
In the case of IRTRKFTRGSPSPLVWRPAT, the growth estimate was < -0.25.
In the case of YPTPESVRTTCLGSVVLHCA it was < -0.25; in that of NRPLGKLNALPGKDGTRPRA, < -0.25; in that of CLLASTAL, < -0.25.
In the case of LIYVVWGPTRPWRL it was < -0.25; in that of IEQLHTRCRGVREPSCVRIS, < -0.25.
The value for AYPME was < -0.25; that for ARRSGQASRDSTIGGNAPER was < -0.25; that for HHRIRWSSVLWSSLEKGGCT was < -0.25.
As for RRPGGP, the growth estimate is < -0.25.
The value for LVRAFVPAPSFAFVLSH was < -0.25.
RGCITT: the growth estimate was < -0.25.
ISGSYSKKLG: the growth estimate is -0.1.
In the case of AWL it was < -0.25.
The value for NAMVVSIKDGRDLSLVPADT was < -0.25.
In the case of KNVNQPSQS it was < -0.25; in that of GIYV, < -0.25.
As to YRGLCLFRKIHVTS, the growth estimate is < -0.25.
The value for IGLFQASHSSPSGSRSLYGP was < -0.25; that for GIRFAAC was < -0.25; that for YWRVGYTLHRTSVSSLFSNN was < -0.25.
In the case of TVIDSLLRLVTMEDFLNKAG it was -0.0917; in that of RGESRHLLLLIAVNAFRAAR, < -0.25; in that of ARSLCITEGECLILASLNLE, < -0.25.
The value for NRLRGQNVITECLNSAQ was < -0.25.
As for HLSLIILVFCHESFPRAFIV, the growth estimate was < -0.25.
The value for PQHLGQEPKGQRSEGMATFR was < -0.25; that for WSHSGELS was < -0.25; that for HVFTLFGRDVLFSYGPTGTE was < -0.25.
Turning to NQLAFHDK, the growth estimate is < -0.25.
In the case of TCLKHLPT it was < -0.25; in that of EHEFGRSTSYHIPRQAPPER, < -0.25.
In the case of KVGG it was < -0.25; in that of TFYGDDDL, < -0.25.
With ASRATKWRPRGRPRDAGRRG, the growth estimate was < -0.25.
In the case of LRARVHSVSGHFAQAMRAAT it was < -0.25; in that of GRLVETGGTTLFQHRCRST, < -0.25; in that of RDLPASKW, < -0.25.
The value for AVKGTSSY was < -0.25.
In the case of VPGVSLANRSDLHDSLSCIP it was < -0.25; in that of APGKGCHFGSPSTERQIDHV, < -0.25; in that of YSLPAGKCLTLTFHRYKSFS, < -0.25.
On to YIRLI, for which the growth estimate was < -0.25.
In the case of PPGDNGKGQHRALAGLVF it was < -0.25; in that of IYCH, < -0.25; in that of AANTVRASPLTYGTFGYAPD, < -0.25.
In the case of HWSRGGMDNGRKLGGSSANR it was < -0.25; in that of LGCLQVFIFSGWGV, < -0.25.
In the case of WFRMDTFRDNTRAMKERSRL it was < -0.25; in that of PGCG, < -0.25.
As for PAHLRLRLRRAEVVSLHPN, the growth estimate was < -0.25.
Consider FENKLFL, for which the growth estimate is < -0.25.
In the case of GCGLFAAS it was < -0.25; in that of FARLAIPLRGTSSWNRFPAV, < -0.25.
In the case of GVK it was < -0.25; in that of AVRRGG, < -0.25.
In the case of ALIWLARNPIRGTRTIMRFG it was < -0.25; in that of RLGEVSVRFGQTSCFRKLVS, < -0.25; in that of EEMERVNR, < -0.25.
QTEGVDLLNRFLVVTSGRRT: the growth estimate is < -0.25.
As to QLSNLLLPCGTIIPA, the growth estimate is < -0.25.
In the case of IDRIYYIPLKVQVALRL it was < -0.25; in that of RSLSLTMASYCTTGPIR, < -0.25.
In the case of SCCLKVMCWIPGNWDKYGYS it was < -0.25; in that of RIDTLG, < -0.25; in that of GVNMYYSKHEQREGGGPEWV, < -0.25.
The value for ISDIGAGIAVLHVGYRHVGK was < -0.25; that for FVNKHNYQGPRSLILIA was -0.241.
On to GPAPVSGLITEAWSVLTVGS, for which the growth estimate is < -0.25.
For IGPENERLSQTGPLFLPTSH, the growth estimate is < -0.25.
The value for SVRRRSLLIRGDVVHHANRT was < -0.25; that for RWLARRTARRVIVRRFRLAW was < -0.25; that for LICT was < -0.25.
Turning to MSMVFLAAFFCGKCTGNSFE, the growth estimate is < -0.25.
As for EWPGRTLKGSKLE, the growth estimate is < -0.25.
The value for SKFMGGSAVD was < -0.25; that for ATLHALIGLRLGGYTVISVP was < -0.25; that for LRRPTRG was < -0.25.
With SSHHMTALRAHFLKTLSIRQ, the growth estimate is < -0.25.
